# This is one part of the list.
# B1: GS13599A-bth-520-23-520 (Bacteroides thetaiotaomicron) (protein)
# chain: SEDTMDRINKDHDHTTSVASRFILADVITSTAFSNASGDINTYASSYIEYEVGVDNQLYYAEVRENEPSSSSTFNNSWNGIYSSLKNARIIIDQCGEGGRDHGNDVTRGMAEVMAAYNCALIADFFGDAPCSQAALVDEKGSPVYMTPKMDTQQEIYTQIISYLDDAIANLQKEDLADVTEQDFLYAGDADKWLKFAYGLKARYTMRLINRSSNKSADYEKVLDYVSKSFTSADDQAAFDIYDSNNINPFYGFYNSRAGFGASTSLGTKLLAYNDPRANRAFFTPIVDKKRSQVAANDPSLVPAPNGSPDQSTSKYGISAFVYAKTAPTLLMSYHELMFLKAEALCRLNRDAEDALKEAVVAGLLNAENSISIAIKELGSGLNTNSSEVITETSAGKYFDDVVKAKYAANPLQETMIQKYLAMWGASGEATETYNDFRRMKGLNENFITLTNPNNSSKFPLRYPYGNSDTAANPEVKAAYGNGDYVYSEPVWWAGGSR
# Key:
# Assay in all cases: glycan array binding signal (z-score within array); higher = stronger binding
# Details in all cases: glycan notation: IUPAC condensed, linker removed
# [1] = biological target: Fuc(a1-2)Gal
# Procedure, shortened: (§1)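 From the Consortium for Functional Glycomics database, 3228 arrays were curated, keeping only those whose protein sequence was available. Binding is given as a within-array Z-score averaged across arrays sharing a protein sequence and across linkers. Negative Z-scores can be read as non-binding.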
# [2] = biological target: Fuc(a1-2)Gal(b1-3)GalNAc
# Procedure, shortened: as §1
# [3] = biological target: Fuc(a1-2)Gal(b1-3)GalNAc(a1-3)[Fuc(a1-2)]Gal(b1-4)Glc
# Procedure, shortened: as §1
# [4] = biological target: Fuc(a1-2)Gal(b1-3)GalNAc(a1-3)[Fuc(a1-2)]Gal(b1-4)GlcNAc
# Procedure, shortened: as §1
# [5] = biological target: Fuc(a1-2)Gal(b1-3)GalNAc(b1-3)Gal
# Procedure, shortened: as §1
# [6] = biological target: Fuc(a1-2)Gal(b1-3)GalNAc(b1-3)Gal(a1-4)Gal(b1-4)Glc
# Procedure, shortened: as §1
# [7] = biological target: Fuc(a1-2)Gal(b1-3)GalNAc(b1-4)[Neu5Ac(a2-3)]Gal(b1-4)Glc
# Procedure, shortened: as §1
# [8] = biological target: Fuc(a1-2)Gal(b1-3)GlcNAc
# Procedure, shortened: as §1
# [9] = biological target: Fuc(a1-2)Gal(b1-3)GlcNAc(b1-2)Man(a1-3)[Fuc(a1-2)Gal(b1-3)GlcNAc(b1-2)Man(a1-6)]Man(b1-4)GlcNAc(b1-4)GlcNAc
# Procedure, shortened: as §1
# [10] = biological target: Fuc(a1-2)Gal(b1-3)GlcNAc(b1-2)Man(a1-3)[Fuc(a1-2)Gal(b1-3)GlcNAc(b1-2)Man(a1-6)]Man(b1-4)GlcNAc(b1-4)[Fuc(a1-6)]GlcNAc
# Procedure, shortened: as §1
# [11] = biological target: Fuc(a1-2)Gal(b1-3)GlcNAc(b1-3)Gal(b1-4)Glc
# Procedure, shortened: as §1
# [12] = biological target: Fuc(a1-2)Gal(b1-3)GlcNAc(b1-3)GalNAc
# Procedure, shortened: as §1
# [13] = biological target: Fuc(a1-2)Gal(b1-3)GlcNAc(b1-3)[Fuc(a1-2)Gal(b1-3)GlcNAc(b1-6)]GalNAc
# Procedure, shortened: as §1
# [14] = biological target: Fuc(a1-2)Gal(b1-3)GlcNAc(b1-3)[Gal(b1-4)GlcNAc(b1-6)]Gal(b1-4)Glc
# Procedure, shortened: as §1
# [15] = biological target: Fuc(a1-2)Gal(b1-3)GlcNAc(b1-3)[Neu5Ac(a2-6)Gal(b1-4)GlcNAc(b1-6)]Gal(b1-4)Glc
# Procedure, shortened: as §1
# [16] = biological target: Fuc(a1-2)Gal(b1-3)GlcNAc6S
# Procedure, shortened: as §1
# [17] = biological target: Fuc(a1-2)Gal(b1-3)[Fuc(a1-4)]GlcNAc
# Procedure, shortened: as §1
# [18] = biological target: Fuc(a1-2)Gal(b1-3)[Fuc(a1-4)]GlcNAc(b1-2)Man(a1-3)[Fuc(a1-2)Gal(b1-3)[Fuc(a1-4)]GlcNAc(b1-2)Man(a1-3)]Man(b1-4)GlcNAc(b1-4)GlcNAc
# Procedure, shortened: as §1
# [19] = biological target: Fuc(a1-2)Gal(b1-3)[Fuc(a1-4)]GlcNAc(b1-2)Man(a1-3)[Fuc(a1-2)Gal(b1-3)[Fuc(a1-4)]GlcNAc(b1-2)Man(a1-6)]Man(b1-4)GlcNAc(b1-4)[Fuc(a1-6)]GlcNAc(b1-4)[Fuc(a1-6)]GlcNAc
# Procedure, shortened: as §1
# [20] = biological target: Fuc(a1-2)Gal(b1-3)[Fuc(a1-4)]GlcNAc(b1-3)[Fuc(a1-3)[Gal(b1-4)]GlcNAc(b1-6)]Gal(b1-4)Glc
# Procedure, shortened: as §1
# [21] = biological target: Fuc(a1-2)Gal(b1-3)[Fuc(a1-4)]GlcNAc(b1-3)[Gal(b1-4)GlcNAc(b1-6)]Gal(b1-4)Glc
# Procedure, shortened: as §1
# [22] = biological target: Fuc(a1-2)Gal(b1-4)Glc
# Procedure, shortened: as §1
# [23] = biological target: Fuc(a1-2)Gal(b1-4)Glc6S
# Procedure, shortened: as §1
# [24] = biological target: Fuc(a1-2)Gal(b1-4)GlcNAc
# Procedure, shortened: as §1
# [25] = biological target: Fuc(a1-2)Gal(b1-4)GlcNAc(b1-2)Man
# Procedure, shortened: as §1
# [26] = biological target: Fuc(a1-2)Gal(b1-4)GlcNAc(b1-2)Man(a1-3)[Fuc(a1-2)Gal(b1-4)GlcNAc(b1-2)Man(a1-6)]Man(b1-4)GlcNAc(b1-4)GlcNAc
# Procedure, shortened: as §1
# [27] = biological target: Fuc(a1-2)Gal(b1-4)GlcNAc(b1-2)Man(a1-3)[Fuc(a1-2)Gal(b1-4)GlcNAc(b1-2)Man(a1-6)]Man(b1-4)GlcNAc(b1-4)[Fuc(a1-6)]GlcNAc
# Procedure, shortened: as §1
# [28] = biological target: Fuc(a1-2)Gal(b1-4)GlcNAc(b1-2)[Fuc(a1-2)Gal(b1-4)GlcNAc(b1-4)]Man(a1-3)[Fuc(a1-2)Gal(b1-4)GlcNAc(b1-2)Man(a1-6)]Man(b1-4)GlcNAc(b1-4)GlcNAc
# Procedure, shortened: as §1
# [29] = biological target: Fuc(a1-2)Gal(b1-4)GlcNAc(b1-3)Gal(b1-4)GlcNAc
# Procedure, shortened: as §1
# [30] = biological target: Fuc(a1-2)Gal(b1-4)GlcNAc(b1-3)Gal(b1-4)GlcNAc(b1-2)Man(a1-3)[Fuc(a1-2)Gal(b1-4)GlcNAc(b1-3)Gal(b1-4)GlcNAc(b1-2)Man(a1-6)]Man(b1-4)GlcNAc(b1-4)GlcNAc
# Procedure, shortened: as §1
# [31] = biological target: Fuc(a1-2)Gal(b1-4)GlcNAc(b1-3)Gal(b1-4)GlcNAc(b1-3)Gal(b1-4)GlcNAc
# Procedure, shortened: as §1
# [32] = biological target: Fuc(a1-2)Gal(b1-4)GlcNAc(b1-3)GalNAc
# Procedure, shortened: as §1
# [33] = biological target: Fuc(a1-2)Gal(b1-4)GlcNAc(b1-3)[Fuc(a1-2)Gal(b1-4)GlcNAc(b1-6)]GalNAc
# Procedure, shortened: as §1
# [34] = biological target: Fuc(a1-2)Gal(b1-4)GlcNAc(b1-3)[Fuc(a1-3)[Gal(b1-4)]GlcNAc(b1-6)]Gal(b1-4)Glc
# Procedure, shortened: as §1
# [35] = biological target: Fuc(a1-2)Gal(b1-4)GlcNAc(b1-6)GalNAc
# Procedure, shortened: as §1
# [36] = biological target: Fuc(a1-2)Gal(b1-4)GlcNAc6S
# Procedure, shortened: as §1
# [37] = biological target: Fuc(a1-2)Gal(b1-4)[Fuc(a1-3)]GlcNAc
# Procedure, shortened: as §1
# [38] = biological target: Fuc(a1-2)Gal(b1-4)[Fuc(a1-3)]GlcNAc(b1-2)Man(a1-3)[Fuc(a1-2)Gal(b1-4)[Fuc(a1-3)]GlcNAc(b1-2)Man(a1-6)]Man(b1-4)GlcNAc(b1-4)[Fuc(a1-6)]GlcNAc
# Procedure, shortened: as §1
# [39] = biological target: Fuc(a1-2)Gal(b1-4)[Fuc(a1-3)]GlcNAc(b1-2)[Fuc(a1-2)Gal(b1-4)[Fuc(a1-3)]GlcNAc(b1-4)]Man(a1-3)[Fuc(a1-2)Gal(b1-4)[Fuc(a1-3)]GlcNAc(b1-2)Man(a1-6)]Man(b1-4)GlcNAc(b1-4)GlcNAc
# Procedure, shortened: as §1
# [40] = biological target: Fuc(a1-2)Gal(b1-4)[Fuc(a1-3)]GlcNAc(b1-3)Gal(b1-4)[Fuc(a1-3)]GlcNAc
# Procedure, shortened: as §1
# [41] = biological target: Fuc(a1-2)Gal(b1-4)[Fuc(a1-3)]GlcNAc(b1-3)Gal(b1-4)[Fuc(a1-3)]GlcNAc(b1-3)Gal(b1-4)[Fuc(a1-3)]GlcNAc
# Procedure, shortened: as §1
# [42] = biological target: Fuc(a1-2)Gal(b1-4)[Fuc(a1-3)]GlcNAc(b1-3)GalNAc
# Procedure, shortened: as §1
# [43] = biological target: Fuc(a1-2)Gal(b1-4)[Fuc(a1-3)]GlcNAc(b1-3)[Neu5Ac(a2-6)Gal(b1-4)GlcNAc(b1-6)]Gal(b1-4)Glc
# Procedure, shortened: as §1
# [44] = biological target: Fuc(a1-2)Gal3S(b1-4)GlcNAc
# Procedure, shortened: as §1
# [45] = biological target: Fuc(a1-2)Gal6S(b1-3)GlcNAc
# Procedure, shortened: as §1
binder,measurement,setting,value
B1,glycan array binding signal (z-score),[1],-0.72
same,glycan array binding signal (z-score),[2],-0.786
same,glycan array binding signal (z-score),[3],-0.48
same,glycan array binding signal (z-score),[4],-0.502
same,glycan array binding signal (z-score),[5],1.15
same,glycan array binding signal (z-score),[6],1.19
same,glycan array binding signal (z-score),[7],-0.05
same,glycan array binding signal (z-score),[8],-0.474
same,glycan array binding signal (z-score),[9],-0.072
same,glycan array binding signal (z-score),[10],1.27
same,glycan array binding signal (z-score),[11],0.009
same,glycan array binding signal (z-score),[12],-0.401
same,glycan array binding signal (z-score),[13],0.527
same,glycan array binding signal (z-score),[14],-0.682
same,glycan array binding signal (z-score),[15],-0.573
same,glycan array binding signal (z-score),[16],-0.915
same,glycan array binding signal (z-score),[17],0.044
same,glycan array binding signal (z-score),[18],1.38
same,glycan array binding signal (z-score),[19],0.741
same,glycan array binding signal (z-score),[20],-0.103
same,glycan array binding signal (z-score),[21],-1.06
same,glycan array binding signal (z-score),[22],-0.831
same,glycan array binding signal (z-score),[23],-0.907
same,glycan array binding signal (z-score),[24],0.113
same,glycan array binding signal (z-score),[25],-0.841
same,glycan array binding signal (z-score),[26],0.686
same,glycan array binding signal (z-score),[27],-0.152
same,glycan array binding signal (z-score),[28],2.4
same,glycan array binding signal (z-score),[29],-1.07
same,glycan array binding signal (z-score),[30],0.322
same,glycan array binding signal (z-score),[31],-0.643
same,glycan array binding signal (z-score),[32],-0.631
same,glycan array binding signal (z-score),[33],-1.1
same,glycan array binding signal (z-score),[34],-0.452
same,glycan array binding signal (z-score),[35],1.22
same,glycan array binding signal (z-score),[36],-0.78
same,glycan array binding signal (z-score),[37],0.206
same,glycan array binding signal (z-score),[38],0.272
same,glycan array binding signal (z-score),[39],1.25
same,glycan array binding signal (z-score),[40],-0.005
same,glycan array binding signal (z-score),[41],-0.474
same,glycan array binding signal (z-score),[42],1.32
same,glycan array binding signal (z-score),[43],-0.281
same,glycan array binding signal (z-score),[44],0.058
same,glycan array binding signal (z-score),[45],-0.741

# An excerpt of these results, with bars between the fields.
binder | measurement | setting | value
B1 | glycan array binding signal (z-score) | [6] | 1.19
same | glycan array binding signal (z-score) | [40] | -0.005

# Source: the supplement of paper PMC8728848
